According to paper PMC6224402:
Results are given in words; binding and its absence hold for the method and conditions named. In cells and extracts the contact can be indirect. Some binding calls cover weakened binding; strength is not graded here. For part of these data: Tags and fused reporters may be left off the sequences shown. Blank lines part the entries; values can stand above or below the binder they belong to.

The chains behind the UniProt entries cited, without tags or fusion partners.
UniProt Q9P1W9: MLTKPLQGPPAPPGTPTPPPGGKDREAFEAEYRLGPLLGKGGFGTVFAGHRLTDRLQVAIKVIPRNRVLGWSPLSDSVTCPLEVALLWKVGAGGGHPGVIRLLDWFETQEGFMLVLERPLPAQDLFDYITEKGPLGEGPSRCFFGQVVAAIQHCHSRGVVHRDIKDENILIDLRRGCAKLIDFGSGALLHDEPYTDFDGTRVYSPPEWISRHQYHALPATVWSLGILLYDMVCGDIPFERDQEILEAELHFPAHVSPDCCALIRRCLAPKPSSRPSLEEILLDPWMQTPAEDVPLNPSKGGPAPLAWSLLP

Key:
HA-tagged PIM2 (human) = HA-tagged PIM2 (human) (UniProt Q9P1W9); test: co-IP; HEK293T cells overexpressing tagged proteins; IP buffer lysate; immunoprecipitation with anti-HA or anti-Flag antibody, immunoblotting
[1] = target: Flag-tagged PIM2 (Proviral Insertion in Murine Lymphomas 2) (human) (UniProt Q9P1W9); test: as above
[2] = target: endogenous PIM2 (human (endogenous in MCF-7)) (UniProt Q9P1W9); test: co-IP; endogenous proteins, MCF-7 cell lysate; immunoprecipitation with anti-PIM2 or anti-HK2 antibody, immunoblotting

binding (HA-tagged PIM2 (human)): binds
B1: GFP-tagged N-HK2 (amino acid residues 1–480) (domain or fragment, UniProt P52789 1-480)
chain: MIASHLLAYFFTELNHDQVQKVDQYLYHMRLSDETLLEISKRFRKEMEKGLGATTHPTAAVKMLPTFVRSTPDGTEHGEFLALDLGGTNFRVLWVKVTDNGLQKVEMENQIYAIPEDIMRGSGTQLFDHIAECLANFMDKLQIKDKKLPLGFTFSFPCHQTKLDESFLVSWTKGFKSSGVEGRDVVALIRKAIQRRGDFDIDIVAVVNDTVGTMMTCGYDDHNCEIGLIVGTGSNACYMEEMRHIDMVEGDEGRMCINMEWGAFGDDGSLNDIRTEFDQEIDMGSLNPGKQLFEKMISGMYMGELVRLILVKMAKEELLFGGKLSPELLNTGRFETKDISDIEGEKDGIRKAREVLMRLGLDPTQEDCVATHRICQIVSTRSASLCAATLAAVLQRIKENKGEERLRSTIGVDGSVYKKHPHFAKRLHKTVRRLVPGCDVRFLRSEDGSGKGAAMVTAVAYRLADQHRARQKTLEHLQLS

binding [1]: binds
B2: HA-tagged HK2 (Hexokinase-II) (enzyme, UniProt P52789 1-917)
chain: MIASHLLAYFFTELNHDQVQKVDQYLYHMRLSDETLLEISKRFRKEMEKGLGATTHPTAAVKMLPTFVRSTPDGTEHGEFLALDLGGTNFRVLWVKVTDNGLQKVEMENQIYAIPEDIMRGSGTQLFDHIAECLANFMDKLQIKDKKLPLGFTFSFPCHQTKLDESFLVSWTKGFKSSGVEGRDVVALIRKAIQRRGDFDIDIVAVVNDTVGTMMTCGYDDHNCEIGLIVGTGSNACYMEEMRHIDMVEGDEGRMCINMEWGAFGDDGSLNDIRTEFDQEIDMGSLNPGKQLFEKMISGMYMGELVRLILVKMAKEELLFGGKLSPELLNTGRFETKDISDIEGEKDGIRKAREVLMRLGLDPTQEDCVATHRICQIVSTRSASLCAATLAAVLQRIKENKGEERLRSTIGVDGSVYKKHPHFAKRLHKTVRRLVPGCDVRFLRSEDGSGKGAAMVTAVAYRLADQHRARQKTLEHLQLSHDQLLEVKRRMKVEMERGLSKETHASAPVKMLPTYVCATPDGTEKGDFLALDLGGTNFRVLLVRVRNGKWGGVEMHNKIYAIPQEVMHGTGDELFDHIVQCIADFLEYMGMKGVSLPLGFTFSFPCQQNSLDESILLKWTKGFKASGCEGEDVVTLLKEAIHRREEFDLDVVAVVNDTVGTMMTCGFEDPHCEVGLIVGTGSNACYMEEMRNVELVEGEEGRMCVNMEWGAFGDNGCLDDFRTEFDVAVDELSLNPGKQRFEKMISGMYLGEIVRNILIDFTKRGLLFRGRISERLKTRGIFETKFLSQIESDCLALLQVRAILQHLGLESTCDDSIIVKEVCTVVARRAAQLCGAGMAAVVDRIRENRGLDALKVTVGVDGTLYKLHPHFAKVMHETVKDLAPKCDVSFLQSEDGSGKGAALITAVACRIREAGQR

binding [2]: binds
B3: endogenous HK2 (enzyme, UniProt P52789 1-917)
chain: B2 chain
